Reference: PubChem BioAssay AID624297 (National Center for Advancing Translational Sciences (NCATS), 2012)
Among all 340,000 compounds or so, about 6,200 (1.8%) were called active. The shares of active, inactive and inconclusive entries below differ from those in the screen. The call rests on the fitted dose curve; in most records, active means well fitted activation curve with a large enough effect; inconclusive means small, poorly fitted or top-dose-only effect; inactive means no such curve, though single readings can be large or run the other way. A potency beside an inconclusive call is a rough fit, not a confirmed value.
Potency means the concentration at half of the fitted maximal effect.

Assay: A quantitative high throughput screen for small molecules that induce DNA re-replication in SW480 colon adenocarcinoma cells. Further: nearly all actives have a fitted effect of over 55% in size. On re-replication activation: % of control where 0% means no effect.
Details: Hoechst DNA content imaging, 48 h; re-replication activation: at 46.1 µM (top of the series)
Source text: H Molecular Libraries Probe Production Network [MLPCN] NIH Chemical Genomics Center [NCGC] MLPCN Grant: Fast Track K99 CA136555 Assay Provider: Melvin DePamphilis, NICHD, NIH Assay Overview Eukaryotic cells normally restrict genome duplication to once per cell division. When this process is aberrant, DNA re-replication occurs when cells reinitiate DNA replication before the first round of replication is complete. DNA re-replication induces the DNA damage response, arrests cell proliferation, and triggers apoptosis. The cell cycle components cyclin A, Cdt-1, Cdc6 and geminin are critical regulators of this process and their misregulation results in DNA re-replication in normal and cancer cells. To identify compounds that induce re-replication in normal cells, an image-based assay was used to measure DNA content of nuclei, as detected by the fluorescent DNA binding dye, Hoechst. Cell nuclei were imaged by a fluorescence scanning plate imager and compounds that induce DNA re-replication were identified by the increase of nuclei with elevated fluorescence intensity
For screening, 250 cells in 5 uL/well were dispensed into black clear 1536-well plates (Aurora) using a solenoid-based dispenser. Following transfer of 23 nL compound or DMSO vehicle by a pin tool, the plates were incubated 48 hr at 37 C and 5% CO2. After addition of 1 uL/well Hoescht stain, the plates were incubated 40 min at 37 C, 5% CO2 and total intensity of fluorescent objects (nuclei) were enumerated by an Acumen Explorer Ex3 (TTP LabTech) fluorescence scanning plate imager (405 nm excitation, 500-530 nm emission). Keywords: NIH Roadmap, MLPCN, MLI, MLSMR, qHTS, NCGC, DNA replication, cancer
For `Cc1[nH]c(=O)[nH]c(=O)c1/C=C/C(=O)OCC(C)C`, the Potency was inconclusive: 7.31 µM [activator, single point].
In the case of `O=c1[nH]c(CN2CC=C(c3ccccc3)CC2)nc2scc(-c3ccccc3)c12`, the “re-replication activation” value is reported as inactive: -1.73%.
For `CC1=NCCc2c1[nH]c1cc(O)ccc21`, the Potency was inconclusive: 29.1 µM [activator, single point].
For `COc1ccc2c(c1)[C@@]13CCC=C[C@H]1[C@@H](C2)NCC3`, the Potency was inconclusive: 16.4 µM [activator, partial curve, poor fit].
In the case of `CN1CCC(N(C)c2nc(-c3ccc([N+](=O)[O-])cc3)nc3ccccc23)CC1`, the Potency is reported as inconclusive: 18.4 µM [activator, single point].
For `CNCCc1ccc(O)c(O)c1`, the Potency was inconclusive: 2.24 µM [activator, partial curve, poor fit].
For `COc1cccc(-n2c(/C=C/c3ccccn3)nc3ccccc3c2=O)c1`, the Potency was inconclusive: 29.1 µM [activator, single point].
For `COC(=O)C1=C(c2ccc(-c3ccccc3)c(F)c2)C[C@@H]2CC[C@H]1N2C(=O)N1CCCC1`, the “re-replication activation” value was inactive: -2.42%.
In the case of `C=CCn1c(=O)c(C=Nc2c(OC)cccc2[N+](=O)[O-])c(O)n(CCCC)c1=O`, the Potency is reported as inconclusive: 4.61 µM [activator, single point].
For `C/C(=N\N1CCCCC1c1cccnc1)c1c(O)n(C2CCCCC2)c(=S)[nH]c1=O` (centres undefined), the Potency was inconclusive: 0.092 µM [activator, full curve, poor fit].
For `CC(C)CCn1c(=O)c(C(=O)Nc2ccccc2S(N)(=O)=O)c(O)c2ccccc21`, the Potency was inconclusive: 29.1 µM [activator, partial curve, poor fit].
In the case of `COc1cc(CN=C(C)c2c(O)n(C3CCCCC3)c(=O)[nH]c2=O)cc(OC)c1`, the “re-replication activation” value is reported as inactive: -132%.
With `O=C(Cc1ccccc1[N+](=O)[O-])N1CCN(Cc2ccc3c(c2)OCO3)CC1` the Potency was active: 16.4 µM.
With `Cc1c(Cl)cccc1N1C(=O)NC(=O)/C(=C\c2cc(C)n(-c3cccc(C(=O)O)c3C)c2C)C1=O` the Potency was inconclusive: 18.4 µM [activator, single point].
In the case of `O=[N+]([O-])c1ccccc1CCl`, the “re-replication activation” value is reported as inactive: -4.34%.
In the case of `Brc1ccc(Oc2cc(Br)c(Br)cc2Br)c(Br)c1`, the Potency is reported as inconclusive: 23.1 µM [activator, single point].
For `CCCNC(=O)N1[C@H]2CC[C@@H]1C(C(=O)OC)=C(c1ccc(OC(F)(F)F)cc1)C2`, the “re-replication activation” value was inactive: -9.96%.
In the case of `CC12CCC3C(CC=C4CC(O)CCC43C)C1C/C(=C\c1cccc(F)c1)C2=O` (centres undefined), the “re-replication activation” value is reported as inactive: 4.76%.
For `CN1[C@@H]2CC(OC(=O)[C@H](CO)c3ccccc3)C[C@H]1[C@@H]1O[C@@H]12` (some centres undefined), the Potency was “inactive”.
With `CCOC(=O)C(=CNc1ccc(C(O)(C(=O)OCC)C(F)(F)F)cc1C)C(=O)OCC` (centres undefined) the “re-replication activation” value was inactive: -4.99%.
With `CC1OC(OC2CC(O)C3(CO)C4C(O)CC5(C)C(C6=CC(=O)OC6)CCC5(O)C4CCC3(O)C2)C(O)C(O)C1O` (centres undefined) the Potency was active: 6.51 µM.
In the case of `CN1CCN(Cc2ccccc2Sc2ccccc2)CC1`, the Potency is reported as inconclusive: 20.6 µM [activator, single point].
For `Cc1ccc(Cn2nnnc2CN2CCC(n3nnc4cc(C(F)(F)F)ccc43)CC2)cc1`, the Potency was inconclusive: 29.1 µM [activator, partial curve, poor fit].
With `C[C@@H]1CC[C@H]2[C@@H](C)C(=O)O[C@@H]3OC4(C)CC[C@@H]1C32OO4` (some centres undefined) the Potency was inconclusive: 15 µM [activator, partial curve].
In the case of `CC(=NCc1cccnc1)c1c(O)n(-c2ccc(Cl)cc2)c(=O)[nH]c1=O`, the Potency is reported as inconclusive: 20.6 µM [activator, single point].
For `O=S(=O)(NC1CCCC1)OCC(Cl)(Cl)Cl`, the Potency was inconclusive: 1.16 µM [activator, single point].
For `CCCCCCCSc1cc(OC)c(CCNC)cc1OC`, the Potency was inconclusive: 29.1 µM [activator, single point].
In the case of `COC(=O)C1=C(c2ccc(F)cc2OCc2ccccc2)C[C@@H]2CC[C@H]1N2C(=O)NCc1ccc(C)cc1`, the Potency is reported as inconclusive: 18.4 µM [activator, single point].
For `COC(=O)C1=C(c2ccc(C(C)=O)cc2)C[C@@H]2CC[C@H]1N2C`, the Potency was inconclusive: 4.61 µM [activator, partial curve, poor fit].
For `CN(C)CCNC(=O)C(=O)NCC1OCCCN1S(=O)(=O)c1cccs1` (centres undefined), the Potency was inconclusive: 0.13 µM [activator, full curve, poor fit].
In the case of `CCOC(=O)c1c(-c2ccc(OC)cc2)oc2ccc(OC(=O)N(C)C)cc12`, the Potency is reported as inconclusive: 14.6 µM [activator, partial curve, poor fit].
For `CCOC(=O)C1=Nc2ccccc2/C1=C\c1c(O)n(C)c(=O)n(C)c1=O`, the Potency was inconclusive: 23.1 µM [activator, partial curve, poor fit].
With `Cc1ccsc1C(=O)C1CCCN(Cc2c(C)nn(C(C)C)c2C)C1` (centres undefined) the “re-replication activation” value was inactive: 5.35%.
With `Cn1c(=O)oc2cc(S(=O)(=O)N3CCC(C(=O)N4CC=C(c5ccccc5)CC4)CC3)ccc21` the Potency was inconclusive: 25.9 µM [activator, single point].
With `O=C1c2ccccc2C2(c3ccc(Cl)cc3)NCCN12` (centres undefined) the “re-replication activation” value was inactive: -5.04%.
In the case of `N#CC1=C(N)Oc2c(c(=O)oc3ccccc23)C1c1ccc(OC(=O)N2CCOCC2)cc1` (centres undefined), the “re-replication activation” value is reported as inactive: 2.24%.
In the case of `Cc1ccccc1-n1c(C)nc2ccccc2c1=O`, the “re-replication activation” value is reported as inactive: -13.7%.
For `Cc1ccc(Cn2c(C)c3cnn(CC(=O)N4CCC5(CC4)OCCO5)c(=O)c3c2C)cc1`, the Potency was inconclusive: 29.1 µM [activator, single point].
In the case of `Cc1cccc(-c2nc3ccc(C(=O)N4CCC5(CC4)OCCO5)cc3nc2-c2cccc(C)c2)c1`, the Potency is reported as inconclusive: 29.1 µM [activator, single point].
In the case of `COc1ccc(CN2C(=O)NC(=O)/C(=C/c3ccc([N+](=O)[O-])s3)C2=O)cc1`, the Potency is reported as inconclusive: 20.6 µM [activator, single point].
For `CC1Oc2cc3c(-c4c(O)cc(O)c5c(O)c6c(cc45)OC(C)C(C)C6=O)c(O)cc(O)c3c(O)c2C(=O)C1C` (centres undefined), the Potency was active: 13 µM.
With `CCS(=O)(=O)N1CCN(C2CCC(C)CC2)CC1` (centres undefined) the Potency was inconclusive: 0.146 µM [activator, full curve, poor fit].
In the case of `O=C(c1ccc2nc3ccc(Cl)cc3c(=O)n2c1)N1CCC2(CC1)OCCO2`, the “re-replication activation” value is reported as inactive: -0.912%.
In the case of `CC12CCC(=O)C=C1CC(N1CC1)C1C2CCC2(C)C(O)CCC12` (centres undefined), the Potency is reported as inconclusive: 20.6 µM [activator, partial curve, poor fit].
In the case of `CCN1CCCC(OC(=O)C(c2ccccc2)c2ccccc2)C1` (centres undefined), the Potency is reported as inconclusive: 2.51 µM [activator, single point].
For `O=C(c1ccc2c(c1)ncn2C1CCCCC1)N1CCC2(CC1)OCCO2`, the Potency was active: 11.6 µM.
With `COC(=O)C1=C(c2cc3ccccc3s2)C[C@@H]2CC[C@H]1N2C(=O)N1CCOCC1` the Potency was inconclusive: 29.1 µM [activator, single point].
For `C[C@H]1[C@H](OC(=O)CCC(=O)NCc2ccc(C(=O)O)cc2)O[C@@H]2O[C@@]3(C)CC[C@H]4[C@H](C)CC[C@@H]1C24OO3`, the Potency was inconclusive: 20.6 µM [activator, partial curve, poor fit].
For `CC(=O)C1(O)CCC2C3CCC4=C(Cl)C(=O)CCC4(C)C3CCC21C` (centres undefined), the Potency was inconclusive: 20.6 µM [activator, single point].
For `O=C1NC(=O)N(Cc2ccco2)C(=O)/C1=C/c1ccc(-c2cccc([N+](=O)[O-])c2)o1`, the Potency was inconclusive: 20.6 µM [activator, single point].
With `Cc1ccccc1OP(N)(=O)Oc1ccccc1C` the Potency was inconclusive: 6.51 µM [activator, single point].
In the case of `CC(C)OCCCNC(=O)c1c(N)n(CC2CCCO2)c2nc3ccccc3nc12` (centres undefined), the “re-replication activation” value is reported as inactive: 52.3%.
In the case of `COc1ccc(-[n+]2c(-c3ccccc3)cc(-c3ccc(C)cc3)cc2-c2ccccc2)cc1`, the Potency is reported as inconclusive: 29.1 µM [activator, single point].
In the case of `CN[C@@H]1C[C@@H](c2ccc(Cl)c(Cl)c2)c2ccccc21`, the Potency is reported as inconclusive: 33.5 µM [activator, partial curve, poor fit].
In the case of `CCC(C)NC(=O)c1c(N)n(Cc2ccc3c(c2)OCO3)c2nc3ccccc3nc12` (centres undefined), the Potency is reported as inconclusive: 29.1 µM [activator, single point].
With `O=C(CO)C(O)C(O)C(O)CO` (centres undefined) the Potency was inconclusive: 23.1 µM [activator, single point].
For `COC(=O)C1=C(c2cccc(OC)c2OC)C[C@@H]2CC[C@H]1N2C(=O)N1CCC(O)CC1`, the “re-replication activation” value was inactive: -28.9%.
For `CCC(=NCCc1c[nH]c2ccccc12)c1c(O)n(-c2ccc(C)cc2)c(=O)[nH]c1=O`, the Potency was inconclusive: 2.91 µM [activator, partial curve, poor fit].
With `O=[N+]([O-])c1ccc(-[n+]2c(-c3ccccc3)cc(-c3ccccc3)cc2-c2ccccc2)cc1` the “re-replication activation” value was inactive: -4.06%.
For `Cc1cc(OC(=O)N(C)C)nc(SCc2c(Cl)cccc2Cl)n1`, the Potency was inconclusive: 0.13 µM [activator, full curve, poor fit].
With `CC(C)n1c(/C=C/[C@H](O)C[C@H](O)CC(=O)O)c(-c2ccc(F)cc2)c2ccccc21` the Potency was inconclusive: 1.06 µM [activator, full curve].
For `CCCCCCC[n+]1ccc(-c2cc[n+](CCCCCCC)cc2)cc1`, the Potency was inconclusive: 5.17 µM [activator, full curve].
For `CN1CCC(N2CC3CC(C2)c2cccc(=O)n2C3)CC1` (centres undefined), the “re-replication activation” value was inactive: -0.803%.
For `COc1cc(/C=C/[N+](=O)[O-])ccc1O`, the Potency was inconclusive: 29.1 µM [activator, single point].
